Data reported in patent US7129208B2 (Washington University, priority 2002, dated 2006).

How the values were obtained:
[1] = peptide synthesis
[2] = general procedure: solution-phase peptide synthesis; EDCI, EDCI/HOBt; PyCloP for SEQ ID NO: 7

Row | Substance | step yield ([1]; coupling step) [%] | further results
1 | 182DGA-Gly-Gly-Gly-3-amino-4-methoxybenzoic Acid-Gly-Gly-Gly-OBz | 28 | 
2 | (C18H37)2NCOCH2OCH2CO-Gly-Gly-Gly-Pro-Gly-Gly-Gly-OCH2Ph (GGGPGGG; N-terminal dioctadecylamide anchor, C-terminal benzyl ester; Synthetic amino acids) | 82 | 
3 | (H17C8)2N—CO—CH2—O—CH2—CO-Gly-Gly-Gly-Pro-Gly-Gly-Gly-OCH2Ph | 50 | 
4 | (H21C10)N(C2H5)—CO—CH2—O—CH2—CO-Gly-Gly-Gly-Pro-Gly-Gly-Gly-OCH2Ph | 75 | 
5 | (H37C18)2N—CO—CH2—O—CH2—CO-Gly-Gly-Gly-Pip-Gly-Gly-Gly-OCH2Ph | 82 | 
6 | (H37C18)2N—CO—CH2—O—CH2—CO-Gly-Gly-Gly-Pro-Gly-Gly-Gly-OEt | 37.5 | 
7 | (H37C18)2N—CO—CH2—O—CH2—CO-Gly-Gly-Gly-Pro-Gly-Gly-Gly-piperonylamine |  | step yield ([1]; late stage modification step): 76%
8 | Boc-PGGG-OEt |  | step yield ([2]; coupling step): 87.6%
9 | Boc-Pip-Gly-Gly-Gly-OCH2Ph |  | step yield ([2]; coupling step): 91%
10 | Boc-Pro-Gly-Gly-Gly-OCH2Ph |  | step yield ([2]; coupling step): 71%
11 | Pro-Gly-Gly-Gly-OCH2Ph |  | step yield ([2]; late stage modification step): 100%

The star is where a group is joined. Boc = CC(C)(C)OC(=O)*
